In patent publication US5733730, “Telomere repeat binding factor and diagnostic and therapeutic use thereof” (The Rockefeller University):
A negative result means that nothing was seen under these conditions. Construct, isoform or probe ends are uncertain for at least one entry. For some of these results: Protein sequences can lack the tags named with them.

Amino acid sequences for entries named in this document (tags omitted). A change or cut given only in a name is not applied to a line headed by its entry.
UniProt P70371: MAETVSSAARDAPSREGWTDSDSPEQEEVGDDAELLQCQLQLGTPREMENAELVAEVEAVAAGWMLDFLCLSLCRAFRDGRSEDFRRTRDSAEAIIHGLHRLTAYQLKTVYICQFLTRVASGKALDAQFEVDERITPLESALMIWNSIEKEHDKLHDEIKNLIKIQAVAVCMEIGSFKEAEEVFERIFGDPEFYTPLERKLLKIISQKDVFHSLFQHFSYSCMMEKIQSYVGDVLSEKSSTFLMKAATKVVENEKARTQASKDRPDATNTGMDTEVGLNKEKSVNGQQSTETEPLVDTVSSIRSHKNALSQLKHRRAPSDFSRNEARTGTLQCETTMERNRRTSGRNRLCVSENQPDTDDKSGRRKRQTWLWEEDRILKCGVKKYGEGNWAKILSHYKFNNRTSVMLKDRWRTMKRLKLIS

Assays:
[1] = molecular target: T1, TRF (HTRF4.1, TRF1) partial ORF from N-terminal XhoI site to stop (Homo sapiens) (UniProt P54274); experiment: competition with a labelled probe; conditions: plasmid competitor with long repeat array; protein translated in vitro; protein details: His6 (pET28b, Novagen) N-terminal fusion; only the site is given
T1 sequence (limits assumed): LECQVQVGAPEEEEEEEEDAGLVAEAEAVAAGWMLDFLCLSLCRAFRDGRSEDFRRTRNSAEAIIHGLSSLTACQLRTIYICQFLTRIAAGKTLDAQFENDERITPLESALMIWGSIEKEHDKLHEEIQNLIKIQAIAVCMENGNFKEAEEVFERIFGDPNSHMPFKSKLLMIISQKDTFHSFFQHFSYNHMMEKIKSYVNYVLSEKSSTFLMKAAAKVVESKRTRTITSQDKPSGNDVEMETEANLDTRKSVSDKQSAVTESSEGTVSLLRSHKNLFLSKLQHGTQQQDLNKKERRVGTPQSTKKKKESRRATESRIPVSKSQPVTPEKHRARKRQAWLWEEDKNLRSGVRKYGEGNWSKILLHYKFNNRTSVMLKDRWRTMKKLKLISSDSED

[2] = molecular target: TRF (MTRF12, full length) (Mus musculus) (UniProt P70371); experiment: competition with a labelled probe; conditions: protein translated in vitro, only the site is given

Sequence	binding result [1]	binding result ([2]; plasmid competitor with long repeat array)	binding result ([2]; plasmid competitor, printed TYGGGG in Example 4)
TTAGGC (double strand) [TTAGGC repeat array plasmid competitor]	no binding	no binding	–
TTGGGG (double strand) [TTGGGG repeat array plasmid competitor]	no binding	–	no binding
